Assay results as given in PubChem BioAssay AID1259415 (National Center for Advancing Translational Sciences (NCATS), 2018).
The campaign covered roughly 410,000 compounds. About 18,000 (4.4%) were called active. This list was built around the results that the source calls inconclusive (neither active nor inactive); the mix of calls is not that of the screen. Rule as the data show it: active = activity change below about -60%; inconclusive = no clear call, values can overlap the other calls; inactive = above about -39%. Some compounds were tested as several samples or in several runs, with calls that do not always agree.
% is scaled to controls: 0 for no effect and ±100 for the full control effect.

Assay: qHTS Assay for inhibitors of the human cytomegalovirus (HCMV)
Conditions: HFF cells, HCMV-luciferase reporter, 72 h; at 57.5 µM; hits give low values
Procedure, shortened: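 Compounds were evaluated in HFFs infected with an HCMV luciferase reporter virus (MOI 1 PFU/cell). Luciferase in lysates collected 72 h post infection served as the replication measure.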
With `Cc1ccc(-c2cc(C(F)F)nc(NCc3cccs3)n2)cc1` the activity change, negative = inhibition was inactive: 28%. In the case of `CCCNC(=O)/C=C/C(=O)O`, the activity change, negative = inhibition is reported as inconclusive: -40.1%. For `Cc1cc2nc3c(c(=O)n2[nH]1)CCCC3`, the activity change, negative = inhibition was inactive: -9.81%. For `O=C(N=Nc1c(O)[nH]c2ccc([N+](=O)[O-])cc12)c1ccccc1Cl`, the activity change, negative = inhibition was inconclusive: -57.9%. With `CC(Oc1ccccc1)C(=O)Nc1nnc(S(=O)(=O)N2CCCCCC2)s1` (stereo not drawn) the activity change, negative = inhibition was active: -69.2%. In the case of `O=C(NCc1ccc(F)cc1)c1ccc2c(c1)S(=O)(=O)c1ccccc1C2=O`, the activity change, negative = inhibition is reported as inconclusive: -46.1%. For `CC(=O)c1c(C)n(C2CCCCC2)c2ccc(O)cc12`, the activity change, negative = inhibition was active: -66.4%. With `CC(C)C1C(=O)N(Cc2cn(Cc3ccco3)nn2)CCS(=O)(=O)N1Cc1ccc(-c2ccc(Cl)cc2)cc1` (stereo not drawn) the activity change, negative = inhibition was inconclusive: -46.7%. In the case of `O=c1c2sccc2nc(SCc2cc(=O)n3ccccc3n2)n1-c1ccc(Br)cc1`, the activity change, negative = inhibition is reported as inconclusive: -44.7%. For `Cc1cccn2c(=O)c(/C=C(\C#N)C(N)=O)c(N3CCN(c4ccccc4)CC3)nc12`, the activity change, negative = inhibition was inconclusive: -51.6%. For `O=S(=O)(c1ccccc1)N1N=C(c2ccc(O)cc2)CC1c1ccco1` (stereo not drawn), the activity change, negative = inhibition was inconclusive: -53.9%. For `COc1ccc(C2c3ccc4ccccc4c3Oc3ncn(CCN4CCOCC4)c(=N)c32)cc1` (stereo not drawn), the activity change, negative = inhibition was inconclusive: -41.7%. For `COc1ccc(-c2nc(NC(=O)c3c(C)noc3C)sc2C)cc1`, the activity change, negative = inhibition was active: -60.5%. With `COc1cc(C)ccc1OCCCCOc1ccccc1C(C)=O` the activity change, negative = inhibition was inconclusive: -46.5%. With `Cc1csc(CNc2ncnc3ccc(-c4ccoc4)cc23)c1` the activity change, negative = inhibition was active: -85.9%. In the case of `Cn1cccc1/C=N/NC(=O)c1sc2ccccc2c1Cl`, the activity change, negative = inhibition is reported as active: -102%. For `Cn1c(Cc2csc(N)n2)nnc1SC/C=C/c1ccccc1`, the activity change, negative = inhibition was inactive: -18.7%. For `Cc1cccc(-n2cnc(C(=O)O)c2)n1`, the activity change, negative = inhibition was inactive: -6.38%. For `O=S(=O)(c1ccc2ccccc2c1)N1CCN(Cc2ccccn2)CC1`, the activity change, negative = inhibition was inconclusive: -45.5%. With `Cn1c(SCC(=O)NCc2ccc3c(c2)OCO3)ncc(C(=O)Nc2ccc(F)cc2)c1=O` the activity change, negative = inhibition was inactive: 7.06%. With `O=C(c1ccc2c(c1)OCO2)N1CCN(c2ccc(C(F)(F)F)cn2)CC1` the activity change, negative = inhibition was inconclusive: -42.8%. For `CCCN1CCCc2cc(CN)ccc21`, the activity change, negative = inhibition was inconclusive: -46.4%. For `CCN(CC)S(=O)(=O)c1ccc(=O)n(CC(=O)N2CCCc3cc(C)ccc32)c1`, the activity change, negative = inhibition was inconclusive: -45.5%. In the case of `Cc1ccc(Cl)cc1N1CCN(C(=O)c2cn(CC(C)C)c(=O)c3c2c2ccccc2n3C)CC1`, the activity change, negative = inhibition is reported as inactive: 18.6%. With `Cc1ccc(S(=O)(=O)N[C@H](C(=O)OCC(=O)NC(=O)C2CCCCC2)C(C)C)cc1` the activity change, negative = inhibition was inconclusive: -53.2%. In the case of `Cn1c(C(C#N)/C(=N\S(=O)(=O)c2cccs2)c2ccccc2)nc2ccccc21` (stereo not drawn), the activity change, negative = inhibition is reported as inconclusive: -49.2%. With `Fc1ccccc1CNC(=S)Nc1cccc(C(F)(F)F)c1` the activity change, negative = inhibition was active: -78.5%. For `CCNC(=O)C1(C)CCN(C(=O)c2ccccc2C(F)(F)F)C1` (stereo not drawn), the activity change, negative = inhibition was inactive: 16.1%. With `CC(C)n1cc2c(N)ncnc2n1` the activity change, negative = inhibition was inactive: -0.126%. For `CCOC(=O)c1[nH]c2ccccc2c1NC(=O)c1ccccc1OC`, the activity change, negative = inhibition was inconclusive: -49.1%. With `CCOC(=O)N1CCN(c2nc(-c3ccc(Cl)cc3)cs2)CC1` the activity change, negative = inhibition was inconclusive: -50.1%. For `CCC1(COC(=O)Nc2cccc(Cl)c2)COC1`, the activity change, negative = inhibition was inactive: -0.753%. With `O=C(O)CCC(=O)N1N=C(c2ccccc2)CC1c1ccc2nccnc2c1` (stereo not drawn) the activity change, negative = inhibition was inconclusive: -50.5%. In the case of `CC(=O)c1cccc(S(=O)(=O)N2CCN(CCOc3ccccc3)CC2)c1`, the activity change, negative = inhibition is reported as active: -61.3%. With `Cc1ccc(-n2c(SCC(=O)NCc3ccco3)nnc2-c2cccnc2)cc1` the activity change, negative = inhibition was inconclusive: -54.2%. For `COc1ccc(CNC(=O)C2CCNCC2)cc1`, the activity change, negative = inhibition was inactive: -9.94%. In the case of `COc1cc(C(=O)OCC(=O)NCc2ccccc2)cc(NC(=O)c2ccco2)c1OC`, the activity change, negative = inhibition is reported as inconclusive: -55.7%. For `CC1CCCN(c2sc(S(C)(=O)=O)nc2S(=O)(=O)c2ccc(Cl)cc2)C1` (stereo not drawn), the activity change, negative = inhibition was inactive: -30.3%. For `COc1ccc(-c2ccc(SCC(=O)N3CC(=O)Nc4ccccc43)nn2)cc1`, the activity change, negative = inhibition was inconclusive: -41.5%. In the case of `O=C(C1CCN(S(=O)(=O)N2CCOCC2)CC1)N1CCN(c2ccccc2F)CC1`, the activity change, negative = inhibition is reported as inconclusive: -41.6%. For `N#Cc1cnn2c(-c3ccccc3)ccnc12`, the activity change, negative = inhibition was inconclusive: -51.5%. In the case of `CCOc1ncccc1C(=O)NCCc1c[nH]c2ccccc12`, the activity change, negative = inhibition is reported as active: -66.5%. With `O=C(c1ccc2c(=O)n(Cc3ccc(Cl)cc3)c(=S)[nH]c2c1)N1CCOCC1` the activity change, negative = inhibition was active: -65%. In the case of `CSc1nc2ccc(NS(=O)(=O)c3ccc4c(c3)OCCO4)cc2s1`, the activity change, negative = inhibition is reported as inconclusive: -47.6%. With `CC(=O)c1ccc(NC(=O)c2ccn[nH]2)cc1` the activity change, negative = inhibition was inactive: 42.9%. In the case of `CC1(C(=O)NS(=O)(=O)c2ccccc2Cl)CCN1C(=O)C1(c2ccc(Cl)cc2)CCC1` (stereo not drawn), the activity change, negative = inhibition is reported as inconclusive: -48.5%. For `CCNC(=O)C1(C)CCN(Cc2ccc(C#N)cc2)C1` (stereo not drawn), the activity change, negative = inhibition was inconclusive: -59.7%. For `c1ccc2c(c1)CN1C(=N2)COc2ccccc2C1c1nc2ccccc2[nH]1` (stereo not drawn), the activity change, negative = inhibition was inactive: 50%. For `CCCc1ccc2oc(C(=O)NCCN3CCCC(C(N)=O)C3)c(C)c2c1` (stereo not drawn), the activity change, negative = inhibition was inconclusive: 0%. With `Cc1ccc(C(=O)N/C(=C\c2ccc(-c3cccc([N+](=O)[O-])c3)o2)C(=O)NC(C)(C)C)cc1` the activity change, negative = inhibition was inconclusive: -49.6%. In the case of `COc1ccc(Cc2nc3ccc(C(=O)N4CCCCC4CO)cc3o2)cc1OC` (stereo not drawn), the activity change, negative = inhibition is reported as inconclusive: -50.1%. In the case of `O=C(NC1CCN(Cc2ccccc2)CC1)c1ccc(CS(=O)c2ccccc2Cl)o1` (stereo not drawn), the activity change, negative = inhibition is reported as inconclusive: -41.5%. In the case of `O=C1N(Cc2cccnc2)C[C@@H]2C[C@@H](c3ccc(-c4ccccc4)cc3)N3CCC[C@@]123`, the activity change, negative = inhibition is reported as inconclusive: -41.6%. With `COc1ccccc1CN1CCNC(=O)C1CC(=O)NCCC1=CCCCC1` (stereo not drawn) the activity change, negative = inhibition was inactive: -25.2%. With `CC(C)CCn1c(=O)c2sccc2n2c(CCCC(=O)N3CCC(N4CCCCC4)CC3)nnc12` the activity change, negative = inhibition was inconclusive: -47.4%. With `c1ccc(-c2cnc(-c3ccccn3)nn2)cc1` the activity change, negative = inhibition was inactive: 34.8%. With `CCN(c1ccc(C)cc1C)S(=O)(=O)c1nnc(NC(=O)CC(C)C)s1` the activity change, negative = inhibition was inactive: -31.6%. In the case of `Cc1ccc(-n2cc(CN(C)CCc3cn[nH]c3)c(-c3cccc(C)c3)n2)cc1`, the activity change, negative = inhibition is reported as inconclusive: -51.5%. With `COc1ccc2c(COC(=O)c3n[nH]c4ccccc34)cc(=O)oc2c1` the activity change, negative = inhibition was inconclusive: -48.2%. With `O=C(CN1CCN(c2ccc([N+](=O)[O-])cc2)CC1)Nc1ccccn1` the activity change, negative = inhibition was inconclusive: -49.9%. For `O=C(Nc1ccccc1N1CCCC1)c1cc(S(=O)(=O)N2CCOCC2)ccc1Cl`, the activity change, negative = inhibition was inconclusive: -56.5%. For `COc1ccc(CC(=O)N2CCN(C)CC2)cc1`, the activity change, negative = inhibition was inactive: 1.12%. With `COC(=O)C1=CN(c2ccc(C(C)(C)C)cc2)C(N)=C(C#N)C1c1cccc2ccccc12` (stereo not drawn) the activity change, negative = inhibition was inconclusive: -57%. For `COc1ccccc1CNC(=O)C1CCN(S(=O)(=O)c2cccc3nonc23)CC1`, the activity change, negative = inhibition was inactive: -19%. With `O=C(O)[C@@H]1Cc2ccccc2N1` the activity change, negative = inhibition was inconclusive: -48.5%. In the case of `CCCS(=O)(=O)NC(=O)C1(C)CCCN(C(=O)c2ccc(OC)cc2)C1` (stereo not drawn), the activity change, negative = inhibition is reported as inconclusive: -41.8%. In the case of `Cc1c(Cl)c(C(F)F)nn1CC(=O)NC1C(=O)N2C(C(=O)O)=C(CSc3nnnn3C)CSC12` (stereo not drawn), the activity change, negative = inhibition is reported as inconclusive: -44.4%. For `CCCCNC(=S)NNC(=O)c1nn(C)c(C)c1Cl`, the activity change, negative = inhibition was inactive: 39.8%. In the case of `COC(=O)CN1C(=S)N(c2ccc(OC)cc2)C(=O)/C1=C/c1ccc(OC)cc1`, the activity change, negative = inhibition is reported as inactive: -15.5%. With `CSc1ccccc1NC(=O)c1ccc(Cl)s1` the activity change, negative = inhibition was inactive: 37.8%. With `CN(C)c1ccc(CNCCC2(O)CCOC(C)(C)C2)cc1` (stereo not drawn) the activity change, negative = inhibition was inconclusive: -58.4%. For `Cc1c(C(=O)N2CCOCC2)sc(NC(=O)CCl)c1C#N`, the activity change, negative = inhibition was inconclusive: -53%. With `O=C(NCc1cccnc1)C12CC3CC(CC(C3)C1)C2` the activity change, negative = inhibition was inconclusive: -54.3%. For `CCC(=O)N1CCc2cc(S(=O)(=O)CCC(=O)NCc3ccc(F)cc3)ccc21`, the activity change, negative = inhibition was inactive: 9.15%. With `CC(NC(=O)Cc1ccccc1)c1cc2c(cc1Br)OCCCO2` (stereo not drawn) the activity change, negative = inhibition was inconclusive: -55.5%. With `O=C(NNC(=O)c1csc(-c2cccnc2)n1)c1ccccc1` the activity change, negative = inhibition was inactive: 19.3%. With `COc1ccc(-c2nc3ccc(C)cn3c2NCc2ccc3c(c2)OCO3)cc1` the activity change, negative = inhibition was inconclusive: -55.9%. With `COc1cccc(NC(=O)N2CCCc3ccccc32)c1` the activity change, negative = inhibition was inconclusive: -49.8%. In the case of `CCOC(=O)c1sc(N(Cc2ccccc2)C(=O)COC(=O)c2ccc(O)cc2)nc1C`, the activity change, negative = inhibition is reported as inconclusive: -44.9%. With `CCCSc1ccc([C@H]2N[C@@](CC(C)C)(C(=O)OC)[C@H]3C(=O)N(C)C(=O)[C@@H]23)cc1` the activity change, negative = inhibition was inconclusive: -43.2%. With `COc1ccc(Cn2c(C(=O)O)c(CNCCc3ccccc3Cl)c3ccc(C)cc32)cc1` the activity change, negative = inhibition was active: -105%. In the case of `O=C(Nc1ccccc1)Nc1ccc(Cl)c([N+](=O)[O-])c1`, the activity change, negative = inhibition is reported as inconclusive: -43.5%. In the case of `CCOP(=O)(OCC)C1(C(=O)O)CCCC1`, the activity change, negative = inhibition is reported as inactive: -1.84%. With `O=C(NC1CCN(Cc2ccccc2)CC1)c1ccc2c(c1)[nH]c(=O)n2Cc1ccc(F)cc1` the activity change, negative = inhibition was active: -85.7%. For `CCC(=O)NC(c1cccc([N+](=O)[O-])c1)c1c(O)ccc2ccccc12` (stereo not drawn), the activity change, negative = inhibition was inconclusive: -53%. In the case of `Cc1cc(C)c(C(=O)/C=C/c2ccco2)c(=O)[nH]1`, the activity change, negative = inhibition is reported as inactive: 23%. For `CC(=O)c1ccc(S(=O)(=O)N2CCN(CCOc3ccc(Br)cc3)CC2)cc1`, the activity change, negative = inhibition was inconclusive: -58.3%. In the case of `O=[N+]([O-])c1cccc(CN2CCN(c3cccc4[nH]ccc34)CC2)c1`, the activity change, negative = inhibition is reported as inconclusive: -48%.
